# The other results are listed elsewhere or left out. Repeats in this data set agree poorly, so a single value says little.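 In a drug-repurposing library screen, luminescence reads luciferase driven by eight TEAD-binding elements, stably integrated into human kidney-derived cells. Compounds scoring over five robust Z scores above the plate mean are called hits.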
# System: HEK293A TEAD-LUC reporter
# Test: TEAD-luciferase reporter activity (YAP activation), robust Z score vs plate; higher = stronger YAP/TEAD activation
# Conditions: 24 h
Structure (SMILES),TEAD-luciferase reporter activity (compound concentration: 2 uM),TEAD-luciferase reporter activity (compound concentration: 200 nM),TEAD-luciferase reporter activity (compound concentration: 10 uM)
CN(C)c1nc(N(C)C)nc(N(C)C)n1 [altretamine],inactive: 2.24,,
CN(C)c1nc(N(C)C)nc(N(C)C)n1,,inactive: -1.82,inactive: 2.83
O=C(O)c1ccc(NC2OC(CO)C(O)C(O)C2O)cc1 (centres undefined),inactive: 0.663,inactive: -0.418,inactive: -1.12
CCOC(=O)CN1CCN(C[C@@H]2CN(c3ccc(C(=N)NC(=O)OC)cc3)C(=O)O2)CC1 [Gantofiban],inactive: -1.15,inactive: -1.32,inactive: -0.269
"COC(=O)C(N)Cc1ccc(O)c(O)c1 (centres undefined) [levodopa, Dizlin Medical Design]",inactive: 0.402,inactive: -0.94,inactive: -0.545
CCCCCCCC/C=C\CCCCCCCC(=O)O[C@H]1C[C@H](n2cc(F)c(=O)[nH]c2=O)O[C@@H]1COP(=O)([O-])OCC[N+](C)(C)C,inactive: 0.706,inactive: -1.56,inactive: 0.502
O=S(=O)(O)c1ccc2[nH]c(-c3ccccc3)nc2c1,inactive: -0.123,inactive: 2.25,inactive: -1.49
CCN(CC)C(=O)CNC(=O)c1cc(OC)c(OC)c(OC)c1,,inactive: 2.08,inactive: 1.02
CCOC(=O)Cc1c2n(c3c(F)cccc13)CC(OS(C)(=O)=O)CC2 (centres undefined),inactive: -0.0895,inactive: -0.579,inactive: 3.25
CSc1cc(C)nc(SC)c1NC(=O)CN1CCN(CCSc2nc3ccccc3[nH]2)CC1,inactive: -1.37,inactive: -0.911,inactive: -1.66
CCOC(=O)C(=O)Nc1nc(-c2ccc(OC)cc2)cs1 [Tioxamast],inactive: -0.568,inactive: 0.382,inactive: -0.265
Nc1ccccc1NC(=O)c1ccc(CNc2nccc(-c3cccnc3)n2)cc1 [mocetinostat],active: 47.6,,
Nc1ccccc1NC(=O)c1ccc(CNc2nccc(-c3cccnc3)n2)cc1 [Mocetinostat (MGCD0103)],,inactive: 3,active: 49.7
Cc1nc2ccccn2c(=O)c1CCN1CCc2oc3ccccc3c2C1,inactive: 0.134,inactive: -0.0979,inactive: -0.435
COc1ccc([C@@H]2CC(=O)c3c(O)cc(O[C@@H]4O[C@H](CO[C@@H]5O[C@@H](C)[C@H](O)[C@@H](O)[C@H]5O)[C@@H](O)[C@H](O)[C@H]4O)cc3O2)cc1O [Hesperidin],inactive: -1.63,,
COc1ccc([C@@H]2CC(=O)c3c(O)cc(O[C@@H]4O[C@H](CO[C@@H]5O[C@@H](C)[C@H](O)[C@@H](O)[C@H]5O)[C@@H](O)[C@H](O)[C@H]4O)cc3O2)cc1O,,inactive: -0.91,inactive: -0.364
O=C(O)Cc1nn(-c2ccc(F)cc2)cc1-c1ccc(Cl)cc1 [pirazolac],inactive: -0.332,inactive: -0.374,inactive: 1.01

# Ten entries from above in a different format:
Structure (SMILES) | TEAD-luciferase reporter activity (compound concentration: 2 uM) | TEAD-luciferase reporter activity (compound concentration: 200 nM) | TEAD-luciferase reporter activity (compound concentration: 10 uM)
CN(C)c1nc(N(C)C)nc(N(C)C)n1 [altretamine] | inactive: 2.24 |  | 
O=C(O)c1ccc(NC2OC(CO)C(O)C(O)C2O)cc1 (centres undefined) | inactive: 0.663 | inactive: -0.418 | inactive: -1.12
CCOC(=O)CN1CCN(C[C@@H]2CN(c3ccc(C(=N)NC(=O)OC)cc3)C(=O)O2)CC1 [Gantofiban] | inactive: -1.15 | inactive: -1.32 | inactive: -0.269
CCCCCCCC/C=C\CCCCCCCC(=O)O[C@H]1C[C@H](n2cc(F)c(=O)[nH]c2=O)O[C@@H]1COP(=O)([O-])OCC[N+](C)(C)C | inactive: 0.706 | inactive: -1.56 | inactive: 0.502
O=S(=O)(O)c1ccc2[nH]c(-c3ccccc3)nc2c1 | inactive: -0.123 | inactive: 2.25 | inactive: -1.49
CSc1cc(C)nc(SC)c1NC(=O)CN1CCN(CCSc2nc3ccccc3[nH]2)CC1 | inactive: -1.37 | inactive: -0.911 | inactive: -1.66
Nc1ccccc1NC(=O)c1ccc(CNc2nccc(-c3cccnc3)n2)cc1 [Mocetinostat (MGCD0103)] |  | inactive: 3 | active: 49.7
Cc1nc2ccccn2c(=O)c1CCN1CCc2oc3ccccc3c2C1 | inactive: 0.134 | inactive: -0.0979 | inactive: -0.435
COc1ccc([C@@H]2CC(=O)c3c(O)cc(O[C@@H]4O[C@H](CO[C@@H]5O[C@@H](C)[C@H](O)[C@@H](O)[C@H]5O)[C@@H](O)[C@H](O)[C@H]4O)cc3O2)cc1O [Hesperidin] | inactive: -1.63 |  | 
COc1ccc([C@@H]2CC(=O)c3c(O)cc(O[C@@H]4O[C@H](CO[C@@H]5O[C@@H](C)[C@H](O)[C@@H](O)[C@H]5O)[C@@H](O)[C@H](O)[C@H]4O)cc3O2)cc1O |  | inactive: -0.91 | inactive: -0.364

# Following part

Structure (SMILES),TEAD-luciferase reporter activity (compound concentration: 2 uM),TEAD-luciferase reporter activity (compound concentration: 200 nM),TEAD-luciferase reporter activity (compound concentration: 10 uM)
C[C@@H](Oc1ccc(CNC(=O)c2cccnc2Oc2ccc3c(c2)OCO3)c(F)c1)C(=O)O,inactive: -0.411,inactive: 0.739,inactive: -1.55
CC(=O)c1cc(N)ccc1N1CCC(C)CC1,inactive: -0.265,inactive: -0.852,inactive: -0.0565
CC(=O)NC[C@H]1CN(c2ccc(-c3ccc(CNCCCF)cc3)c(F)c2)C(=O)O1,inactive: 1.13,inactive: -0.69,inactive: -0.724
CCOC(=O)Nc1ccc2c(c1)N(C(=O)CCN(CC)CC)c1ccccc1S2 [etacizin],inactive: 2.47,inactive: -0.932,inactive: 0.782
CC[C@H](C)[C@@H]1NC(=O)[C@H](CCC(N)=O)NC(=O)[C@H](CC(N)=O)NC(=O)[C@H](CO)NC(=O)[C@H](CC(N)=O)NC(=O)[C@@H](N)CSSC[C@@H](C(=O)O)NC1=O,inactive: 0.248,inactive: 0.015,inactive: 3.37
Cc1cc(-c2nc3cc(F)ccc3s2)ccc1NC(=O)[C@@H](N)CCCCN [Phortress],inactive: -2.68,inactive: 1.53,inactive: 0.281
Cc1cc(-c2nc3cc(F)ccc3s2)ccc1NC(=O)[C@@H](N)CCCCN,inactive: -1.22,,
CCn1c(=O)c2c(nc(N[C@@H]3CCC[C@H]3O)n2Cc2ccc(OC)c(Br)c2)n(CCO)c1=O [dasantafil],inactive: -0.111,inactive: -0.0763,inactive: -0.844
CCc1ncnc2cc(OC)c(OC)cc12,inactive: -1.42,inactive: -0.717,inactive: 0.108
c1ccc(OCCNC2CCN(c3nc4ccccc4s3)CC2)cc1,inactive: -0.232,inactive: -2.92,inactive: 0.288
COc1cccc(OCC2CNCCO2)c1 (centres undefined),inactive: 3.1,inactive: 2.98,inactive: 0.528
COc1cccc([C@@H](Oc2ccc3c(cnn3-c3ccc(F)cc3)c2)[C@H](C)NC(=O)C(F)(F)F)c1,inactive: -0.413,inactive: -0.512,inactive: 0.372
O=Cc1c(O)ccc2cccc(O)c12,inactive: -1.75,inactive: 0.0269,inactive: -1.53
CCC(=O)c1ccc2c(c1)N(CC(C)N(C)C)c1ccccc1S2 (centres undefined) [Propiomazine],inactive: -1.43,inactive: 0.0994,inactive: 4.05
CCOCCn1c(N2CCCN(C)CC2)nc2ccccc21 [emedastine difumarate],inactive: -0.716,inactive: -1.49,inactive: -0.0958
O=C(O)C(Cl)c1ccc(C2CCCCC2)c(Cl)c1 (centres undefined) [fenclorac],inactive: -1.1,inactive: -0.782,inactive: 0.62
"C[C@@H]1C[C@H]2[C@@H]3CCC4=CC(=O)C=C[C@]4(C)[C@@]3(Cl)[C@@H](O)C[C@]2(C)[C@@]1(OC(=O)c1ccco1)C(=O)CCl (single isomer, unassigned; ent-2) [mometasone furoate stent, Intersect ENT-2]",,inactive: -1.03,inactive: 3.67
